# Laboratory results from the supplement of paper PMC12823440, “Inhibitors supercharge kinase turnover through native proteolytic circuits” (Nature, 2025).
# Sequences of proteins named here, by UniProt entry; tags and fusion partners are left off. A change or cut given only in a name is not applied to a line headed by its entry.
# UniProt Q06187: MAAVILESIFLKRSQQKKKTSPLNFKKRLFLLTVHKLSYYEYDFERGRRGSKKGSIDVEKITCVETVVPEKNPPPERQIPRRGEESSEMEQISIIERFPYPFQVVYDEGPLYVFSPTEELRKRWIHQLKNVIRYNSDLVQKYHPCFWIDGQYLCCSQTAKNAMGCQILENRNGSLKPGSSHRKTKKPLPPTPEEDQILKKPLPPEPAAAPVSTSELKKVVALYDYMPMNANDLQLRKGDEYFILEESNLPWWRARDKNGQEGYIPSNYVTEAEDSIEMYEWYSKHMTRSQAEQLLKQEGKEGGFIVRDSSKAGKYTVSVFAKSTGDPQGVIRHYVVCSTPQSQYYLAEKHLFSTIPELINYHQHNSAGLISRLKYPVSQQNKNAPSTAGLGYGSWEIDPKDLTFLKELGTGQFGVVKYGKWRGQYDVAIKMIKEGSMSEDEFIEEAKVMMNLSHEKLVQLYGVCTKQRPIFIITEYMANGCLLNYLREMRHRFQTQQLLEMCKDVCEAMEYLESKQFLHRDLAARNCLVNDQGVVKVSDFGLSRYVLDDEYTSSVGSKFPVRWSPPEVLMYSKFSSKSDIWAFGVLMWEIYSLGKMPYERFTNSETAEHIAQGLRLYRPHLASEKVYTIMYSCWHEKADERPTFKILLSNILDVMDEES
# UniProt Q9UQM7, whole entry: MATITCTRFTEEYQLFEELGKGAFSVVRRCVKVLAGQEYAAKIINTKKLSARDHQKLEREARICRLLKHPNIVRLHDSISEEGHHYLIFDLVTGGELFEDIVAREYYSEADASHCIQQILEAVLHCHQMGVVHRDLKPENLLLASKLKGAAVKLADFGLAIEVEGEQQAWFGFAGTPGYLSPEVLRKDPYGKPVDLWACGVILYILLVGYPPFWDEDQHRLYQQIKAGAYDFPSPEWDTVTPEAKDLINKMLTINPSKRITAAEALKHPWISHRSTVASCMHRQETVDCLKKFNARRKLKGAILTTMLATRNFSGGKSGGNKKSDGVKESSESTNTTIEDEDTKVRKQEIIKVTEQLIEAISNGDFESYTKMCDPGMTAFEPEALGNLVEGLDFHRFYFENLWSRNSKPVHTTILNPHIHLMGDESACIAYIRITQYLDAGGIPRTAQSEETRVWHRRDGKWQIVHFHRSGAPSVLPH
# UniProt Q13555: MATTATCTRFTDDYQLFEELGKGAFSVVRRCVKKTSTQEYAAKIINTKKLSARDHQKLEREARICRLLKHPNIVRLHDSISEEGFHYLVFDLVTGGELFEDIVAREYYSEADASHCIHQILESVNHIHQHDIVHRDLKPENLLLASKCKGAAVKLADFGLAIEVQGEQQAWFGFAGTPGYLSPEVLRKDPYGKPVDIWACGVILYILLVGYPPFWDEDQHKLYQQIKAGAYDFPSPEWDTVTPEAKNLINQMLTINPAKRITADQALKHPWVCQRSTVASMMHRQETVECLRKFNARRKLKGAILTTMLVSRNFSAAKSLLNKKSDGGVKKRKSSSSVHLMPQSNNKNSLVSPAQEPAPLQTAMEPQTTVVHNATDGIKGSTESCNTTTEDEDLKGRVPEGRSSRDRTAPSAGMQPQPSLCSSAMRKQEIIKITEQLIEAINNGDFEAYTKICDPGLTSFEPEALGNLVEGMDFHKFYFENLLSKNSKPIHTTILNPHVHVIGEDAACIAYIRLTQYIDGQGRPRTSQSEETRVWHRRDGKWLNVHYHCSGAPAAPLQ
# UniProt Q15131: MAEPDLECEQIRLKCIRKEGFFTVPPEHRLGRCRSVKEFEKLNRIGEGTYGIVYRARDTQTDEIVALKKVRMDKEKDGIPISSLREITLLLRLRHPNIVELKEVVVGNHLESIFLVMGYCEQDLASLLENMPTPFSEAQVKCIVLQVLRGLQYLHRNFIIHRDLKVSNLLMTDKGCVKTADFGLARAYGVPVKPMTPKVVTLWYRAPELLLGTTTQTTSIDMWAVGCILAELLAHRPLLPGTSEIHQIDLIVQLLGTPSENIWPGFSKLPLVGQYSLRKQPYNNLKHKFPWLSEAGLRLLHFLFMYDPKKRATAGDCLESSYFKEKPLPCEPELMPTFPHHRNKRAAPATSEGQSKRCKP
# UniProt P11802: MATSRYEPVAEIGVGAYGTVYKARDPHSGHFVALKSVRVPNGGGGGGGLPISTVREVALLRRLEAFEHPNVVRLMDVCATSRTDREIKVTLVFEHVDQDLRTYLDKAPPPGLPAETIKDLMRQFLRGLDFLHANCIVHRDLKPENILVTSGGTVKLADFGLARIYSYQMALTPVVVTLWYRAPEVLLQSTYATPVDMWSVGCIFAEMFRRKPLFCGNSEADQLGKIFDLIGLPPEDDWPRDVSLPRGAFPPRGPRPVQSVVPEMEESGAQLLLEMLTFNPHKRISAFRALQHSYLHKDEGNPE
# UniProt Q00535, whole entry, looked up: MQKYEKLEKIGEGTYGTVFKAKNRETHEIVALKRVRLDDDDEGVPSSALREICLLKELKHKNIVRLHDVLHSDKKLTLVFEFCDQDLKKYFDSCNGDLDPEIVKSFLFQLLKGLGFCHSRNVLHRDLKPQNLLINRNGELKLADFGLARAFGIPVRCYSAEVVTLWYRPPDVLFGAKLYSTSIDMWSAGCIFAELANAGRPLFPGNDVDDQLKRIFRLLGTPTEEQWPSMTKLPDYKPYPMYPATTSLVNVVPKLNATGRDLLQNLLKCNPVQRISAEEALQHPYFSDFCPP
# UniProt Q00534, whole entry: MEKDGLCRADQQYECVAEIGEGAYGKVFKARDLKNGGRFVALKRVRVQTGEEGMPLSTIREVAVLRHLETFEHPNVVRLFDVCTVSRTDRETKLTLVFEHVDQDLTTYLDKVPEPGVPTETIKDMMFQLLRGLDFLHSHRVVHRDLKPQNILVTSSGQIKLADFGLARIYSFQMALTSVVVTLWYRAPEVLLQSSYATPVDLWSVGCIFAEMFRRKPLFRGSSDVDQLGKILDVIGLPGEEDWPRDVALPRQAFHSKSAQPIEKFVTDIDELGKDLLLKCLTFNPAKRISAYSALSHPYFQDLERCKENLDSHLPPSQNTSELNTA
# UniProt P50613: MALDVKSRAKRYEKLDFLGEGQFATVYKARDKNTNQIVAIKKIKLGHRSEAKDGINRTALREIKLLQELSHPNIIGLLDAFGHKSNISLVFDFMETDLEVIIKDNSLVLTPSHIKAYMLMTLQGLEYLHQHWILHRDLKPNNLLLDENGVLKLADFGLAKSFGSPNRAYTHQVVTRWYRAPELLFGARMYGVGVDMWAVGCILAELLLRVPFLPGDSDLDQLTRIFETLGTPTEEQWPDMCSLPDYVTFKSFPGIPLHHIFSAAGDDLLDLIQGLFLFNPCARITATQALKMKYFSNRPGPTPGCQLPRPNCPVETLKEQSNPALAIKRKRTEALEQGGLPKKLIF
# UniProt P07333, whole entry: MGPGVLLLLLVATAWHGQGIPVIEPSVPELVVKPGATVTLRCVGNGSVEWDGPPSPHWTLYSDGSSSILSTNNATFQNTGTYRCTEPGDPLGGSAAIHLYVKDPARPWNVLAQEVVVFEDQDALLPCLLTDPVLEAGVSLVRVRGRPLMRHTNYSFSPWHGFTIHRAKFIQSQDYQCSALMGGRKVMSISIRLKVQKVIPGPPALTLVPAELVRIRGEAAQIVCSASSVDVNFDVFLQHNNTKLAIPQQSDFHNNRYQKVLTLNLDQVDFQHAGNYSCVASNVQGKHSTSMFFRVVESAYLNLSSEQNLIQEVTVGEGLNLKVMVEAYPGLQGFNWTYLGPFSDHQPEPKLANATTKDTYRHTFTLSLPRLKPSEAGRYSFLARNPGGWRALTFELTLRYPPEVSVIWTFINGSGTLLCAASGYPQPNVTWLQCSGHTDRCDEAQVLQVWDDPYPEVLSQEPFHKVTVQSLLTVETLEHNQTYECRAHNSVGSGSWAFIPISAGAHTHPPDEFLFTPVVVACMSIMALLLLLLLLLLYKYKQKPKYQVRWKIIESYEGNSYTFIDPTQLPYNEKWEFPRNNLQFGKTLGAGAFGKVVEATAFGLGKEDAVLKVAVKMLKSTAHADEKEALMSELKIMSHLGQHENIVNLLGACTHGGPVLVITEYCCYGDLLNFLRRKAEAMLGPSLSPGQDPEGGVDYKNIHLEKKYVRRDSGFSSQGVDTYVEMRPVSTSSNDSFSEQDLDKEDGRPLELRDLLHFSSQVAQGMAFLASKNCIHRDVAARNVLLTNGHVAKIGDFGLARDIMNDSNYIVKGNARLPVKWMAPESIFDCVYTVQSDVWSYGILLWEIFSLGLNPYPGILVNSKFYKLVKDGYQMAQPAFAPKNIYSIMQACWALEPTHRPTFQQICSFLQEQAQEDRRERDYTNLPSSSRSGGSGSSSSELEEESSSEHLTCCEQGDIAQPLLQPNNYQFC
# UniProt P48729: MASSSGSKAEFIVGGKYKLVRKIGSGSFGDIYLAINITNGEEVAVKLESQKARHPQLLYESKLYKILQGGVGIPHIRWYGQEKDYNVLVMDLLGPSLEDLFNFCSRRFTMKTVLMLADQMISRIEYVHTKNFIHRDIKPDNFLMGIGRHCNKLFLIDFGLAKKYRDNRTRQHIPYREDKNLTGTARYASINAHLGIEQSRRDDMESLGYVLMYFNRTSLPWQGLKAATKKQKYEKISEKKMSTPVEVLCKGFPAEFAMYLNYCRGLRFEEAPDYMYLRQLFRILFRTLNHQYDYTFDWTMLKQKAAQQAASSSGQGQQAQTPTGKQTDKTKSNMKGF
# UniProt P48730: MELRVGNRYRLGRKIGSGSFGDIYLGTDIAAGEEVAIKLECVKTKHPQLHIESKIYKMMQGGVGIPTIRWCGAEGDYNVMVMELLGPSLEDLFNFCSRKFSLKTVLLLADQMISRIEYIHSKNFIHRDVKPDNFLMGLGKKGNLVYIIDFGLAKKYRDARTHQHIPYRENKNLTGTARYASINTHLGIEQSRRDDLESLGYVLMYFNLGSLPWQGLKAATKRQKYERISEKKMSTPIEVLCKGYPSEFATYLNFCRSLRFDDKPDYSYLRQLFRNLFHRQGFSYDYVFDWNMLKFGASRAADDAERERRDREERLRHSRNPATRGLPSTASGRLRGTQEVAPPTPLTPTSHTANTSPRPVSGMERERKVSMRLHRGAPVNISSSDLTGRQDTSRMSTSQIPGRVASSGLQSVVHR
# UniProt Q08345: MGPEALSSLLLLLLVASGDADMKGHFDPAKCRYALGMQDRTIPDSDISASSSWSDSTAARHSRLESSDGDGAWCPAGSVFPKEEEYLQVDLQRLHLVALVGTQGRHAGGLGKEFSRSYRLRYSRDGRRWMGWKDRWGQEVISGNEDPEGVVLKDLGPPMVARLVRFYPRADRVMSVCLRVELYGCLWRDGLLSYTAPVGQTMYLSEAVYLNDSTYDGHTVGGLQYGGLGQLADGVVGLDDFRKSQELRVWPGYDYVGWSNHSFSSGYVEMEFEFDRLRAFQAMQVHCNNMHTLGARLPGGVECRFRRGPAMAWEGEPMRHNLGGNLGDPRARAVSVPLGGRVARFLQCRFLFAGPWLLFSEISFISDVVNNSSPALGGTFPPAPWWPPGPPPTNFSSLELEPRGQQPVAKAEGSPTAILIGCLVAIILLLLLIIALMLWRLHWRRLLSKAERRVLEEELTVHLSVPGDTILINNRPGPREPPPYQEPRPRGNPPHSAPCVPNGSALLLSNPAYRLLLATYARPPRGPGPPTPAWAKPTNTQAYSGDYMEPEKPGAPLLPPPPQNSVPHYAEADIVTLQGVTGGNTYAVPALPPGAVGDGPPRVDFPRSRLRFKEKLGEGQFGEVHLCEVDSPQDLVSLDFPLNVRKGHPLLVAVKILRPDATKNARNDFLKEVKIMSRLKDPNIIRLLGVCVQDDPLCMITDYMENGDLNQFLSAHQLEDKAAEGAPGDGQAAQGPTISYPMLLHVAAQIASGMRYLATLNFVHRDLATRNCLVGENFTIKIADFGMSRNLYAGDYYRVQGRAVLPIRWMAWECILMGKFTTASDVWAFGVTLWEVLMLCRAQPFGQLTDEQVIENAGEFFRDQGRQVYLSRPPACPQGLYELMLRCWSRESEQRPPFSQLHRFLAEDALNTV
# UniProt Q92630: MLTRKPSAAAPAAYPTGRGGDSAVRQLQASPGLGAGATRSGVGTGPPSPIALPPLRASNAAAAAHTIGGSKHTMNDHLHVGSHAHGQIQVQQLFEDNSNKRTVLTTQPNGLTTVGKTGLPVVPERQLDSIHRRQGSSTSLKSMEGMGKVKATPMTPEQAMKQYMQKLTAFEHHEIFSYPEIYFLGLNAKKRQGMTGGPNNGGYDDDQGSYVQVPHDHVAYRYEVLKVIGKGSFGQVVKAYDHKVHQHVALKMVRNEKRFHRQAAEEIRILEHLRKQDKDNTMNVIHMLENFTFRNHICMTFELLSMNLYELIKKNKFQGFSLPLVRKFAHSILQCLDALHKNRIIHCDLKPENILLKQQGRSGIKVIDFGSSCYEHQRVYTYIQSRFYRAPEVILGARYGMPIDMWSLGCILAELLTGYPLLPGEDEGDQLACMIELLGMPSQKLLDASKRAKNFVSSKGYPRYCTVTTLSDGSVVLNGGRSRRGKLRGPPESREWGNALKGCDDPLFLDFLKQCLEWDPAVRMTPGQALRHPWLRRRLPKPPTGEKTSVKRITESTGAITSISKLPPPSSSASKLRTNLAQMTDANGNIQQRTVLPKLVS
# The list shows a part of the results. Hit calls seldom repeat between salt and free forms of one compound.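 Kinases were expressed as nanoluciferase fusions in K562 cells and luminescence was read every 4 h between 2 and 18 h as percent of control, DMSO set to 100% and a positive control to 0%. A time point counts as decreased when the signal drops significantly (2 sigma). The hit call is the authors' own, does not follow from the count of time points alone, and its rule is not shown.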
# Assays:
# Assay in all cases: kinase-Nluc reporter destabilization hit call (1 = scored as downregulated) (binary); higher = compound decreases kinase abundance
# Conditions in all cases: K562; 2-18 h
# BRAF_V600E = system: BRAF_V600E
# BTK = BTK (UniProt Q06187)
# CAMK2A = CAMK2A (UniProt Q9UQM7)
# CAMK2G = CAMK2G (UniProt Q13555)
# CDK10 = CDK10 (UniProt Q15131)
# CDK2 = CDK2 (UniProt P24941)
# CDK3 = CDK3 (UniProt Q00526)
# CDK4 = CDK4 (UniProt P11802)
# CDK5 = CDK5 (UniProt Q00535)
# CDK6 = CDK6 (UniProt Q00534)
# CDK7 = CDK7 (UniProt P50613)
# CDK9 = CDK9 (UniProt P50750)
# CHEK2 = CHEK2 (UniProt O96017)
# CSF1R = CSF1R (UniProt P07333)
# CSK = CSK (UniProt P41240)
# CSNK1A1 = CSNK1A1 (UniProt P48729)
# CSNK1D = CSNK1D (UniProt P48730)
# DDR1 = DDR1 (UniProt Q08345)
# DYRK1B = DYRK1B (UniProt Q9Y463)
# DYRK2 = DYRK2 (UniProt Q92630)
Compound,kinase-Nluc reporter destabilization hit call (BRAF_V600E),kinase-Nluc reporter destabilization hit call (BTK),kinase-Nluc reporter destabilization hit call (CAMK2A),kinase-Nluc reporter destabilization hit call (CAMK2G),kinase-Nluc reporter destabilization hit call (CDK10),kinase-Nluc reporter destabilization hit call (CDK2),kinase-Nluc reporter destabilization hit call (CDK3),kinase-Nluc reporter destabilization hit call (CDK4),kinase-Nluc reporter destabilization hit call (CDK5),kinase-Nluc reporter destabilization hit call (CDK6),kinase-Nluc reporter destabilization hit call (CDK7),kinase-Nluc reporter destabilization hit call (CDK9),kinase-Nluc reporter destabilization hit call (CHEK2),kinase-Nluc reporter destabilization hit call (CSF1R),kinase-Nluc reporter destabilization hit call (CSK),kinase-Nluc reporter destabilization hit call (CSNK1A1),kinase-Nluc reporter destabilization hit call (CSNK1D),kinase-Nluc reporter destabilization hit call (DDR1),kinase-Nluc reporter destabilization hit call (DYRK1B),kinase-Nluc reporter destabilization hit call (DYRK2)
N#Cc1ccnc(Nc2cc(C3CCN(C4COC4)CC3)cc(N3CCC(F)(F)C3)n2)c1 (2.5 µM),inactive: 0,inactive: 0,inactive: 0,inactive: 0,inactive: 0,inactive: 0,inactive: 0,inactive: 0,inactive: 0,inactive: 0,inactive: 0,inactive: 0,inactive: 0,inactive: 0,inactive: 0,inactive: 0,inactive: 0,inactive: 0,inactive: 0,inactive: 0
CC1(C)Cc2c(sc(NC(=S)NC(=O)c3ccccc3)c2C(=O)O)CO1 (10 µM),inactive: 0,inactive: 0,inactive: 0,inactive: 0,inactive: 0,inactive: 0,inactive: 0,inactive: 0,inactive: 0,inactive: 0,inactive: 0,inactive: 0,inactive: 0,inactive: 0,inactive: 0,inactive: 0,inactive: 0,inactive: 0,inactive: 0,inactive: 0
O=C1NC(=Nc2c(Cl)cccc2Cl)S/C1=C\c1ccc2nccnc2c1 (2.5 µM),inactive: 0,inactive: 0,inactive: 0,inactive: 0,inactive: 0,inactive: 0,inactive: 0,inactive: 0,inactive: 0,inactive: 0,inactive: 0,inactive: 0,inactive: 0,inactive: 0,inactive: 0,inactive: 0,inactive: 0,inactive: 0,inactive: 0,inactive: 0
Cc1ccc2c(Nc3cccc(Cl)c3F)nccc2c1NC(=O)c1csc2c(N)ncnc12 [Belvarafenib] (10 µM),inactive: 0,inactive: 0,inactive: 0,inactive: 0,inactive: 0,inactive: 0,inactive: 0,inactive: 0,inactive: 0,inactive: 0,inactive: 0,inactive: 0,inactive: 0,inactive: 0,inactive: 0,inactive: 0,inactive: 0,inactive: 0,inactive: 0,inactive: 0
O=C(NCc1cccc(O)c1)Nc1nc(-c2ccncc2)cs1 (10 µM),inactive: 0,inactive: 0,inactive: 0,inactive: 0,inactive: 0,inactive: 0,inactive: 0,inactive: 0,inactive: 0,inactive: 0,inactive: 0,inactive: 0,inactive: 0,inactive: 0,inactive: 0,inactive: 0,inactive: 0,inactive: 0,inactive: 0,inactive: 0
C[C@@H]1O[C@@H](O[C@@H]2[C@@H](O)[C@H](OCCc3ccc(O)c(O)c3)O[C@H](CO)[C@H]2OC(=O)/C=C/c2ccc(O)c(O)c2)[C@H](O)[C@H](O)[C@H]1O [Verbascoside] (10 µM),inactive: 0,inactive: 0,inactive: 0,inactive: 0,inactive: 0,inactive: 0,inactive: 0,inactive: 0,inactive: 0,inactive: 0,inactive: 0,inactive: 0,inactive: 0,inactive: 0,inactive: 0,inactive: 0,inactive: 0,inactive: 0,inactive: 0,inactive: 0
C[C@@H]1CCNC(=O)c2cc3ccc(C(=O)Nc4nc5ccccc5n4CCCN(C)C)cc3n21 (10 µM),inactive: 0,inactive: 0,inactive: 0,inactive: 0,inactive: 0,inactive: 0,inactive: 0,inactive: 0,inactive: 0,inactive: 0,inactive: 0,inactive: 0,inactive: 0,inactive: 0,inactive: 0,inactive: 0,inactive: 0,inactive: 0,inactive: 0,inactive: 0
Cn1cc(C2=C(c3cccc(N)c3)C(=O)NC2=O)c2ccccc21 (10 µM),inactive: 0,inactive: 0,inactive: 0,inactive: 0,inactive: 0,inactive: 0,inactive: 0,inactive: 0,inactive: 0,inactive: 0,inactive: 0,inactive: 0,inactive: 0,inactive: 0,inactive: 0,inactive: 0,inactive: 0,inactive: 0,inactive: 0,inactive: 0
Cc1cccc2c3c(ccc12)C(=O)C1=C(OCC1C)C3=O (stereo not given) [Dihydroisotanshinone I] (2.5 µM),inactive: 0,inactive: 0,inactive: 0,inactive: 0,inactive: 0,inactive: 0,inactive: 0,inactive: 0,inactive: 0,inactive: 0,inactive: 0,inactive: 0,inactive: 0,inactive: 0,inactive: 0,inactive: 0,inactive: 0,inactive: 0,inactive: 0,inactive: 0
C[C@H](Nc1ncnc2[nH]cnc12)c1cc2ccc(F)cc2nc1-c1ccccn1 (10 µM),inactive: 0,inactive: 0,inactive: 0,inactive: 0,inactive: 0,inactive: 0,inactive: 0,inactive: 0,inactive: 0,inactive: 0,inactive: 0,inactive: 0,inactive: 0,inactive: 0,inactive: 0,inactive: 0,inactive: 0,inactive: 0,inactive: 0,inactive: 0
CC(C)S(=O)(=O)c1ccc2nccc(Nc3ccc4scnc4c3)c2c1 (10 µM),inactive: 0,inactive: 0,inactive: 0,inactive: 0,inactive: 0,inactive: 0,inactive: 0,inactive: 0,inactive: 0,inactive: 0,inactive: 0,inactive: 0,inactive: 0,inactive: 0,inactive: 0,inactive: 0,inactive: 0,inactive: 0,inactive: 0,inactive: 0
C[C@@H]1CN(c2cc(-c3n[nH]c4ccc(OC5(C)CC5)cc34)ncn2)C[C@H](C)O1 (10 µM),inactive: 0,inactive: 0,inactive: 0,inactive: 0,inactive: 0,inactive: 0,inactive: 0,inactive: 0,inactive: 0,inactive: 0,inactive: 0,inactive: 0,inactive: 0,inactive: 0,inactive: 0,inactive: 0,inactive: 0,inactive: 0,inactive: 0,inactive: 0
C=CC(=O)N1CCC[C@H](n2c(=O)n(-c3ccc(Oc4ccccc4)cc3)c3c(N)ncnc32)C1 [ONO-4059 (analog)] (10 µM),inactive: 0,inactive: 0,inactive: 0,inactive: 0,inactive: 0,inactive: 0,inactive: 0,inactive: 0,inactive: 0,inactive: 0,inactive: 0,inactive: 0,inactive: 0,inactive: 0,inactive: 0,inactive: 0,inactive: 0,inactive: 0,inactive: 0,inactive: 0
C[C@@H]1COCCN1c1nc(-c2cnc(N)cc2C(F)F)nc(N2[C@H](C)COC[C@@H]2C)n1 (2.5 µM),inactive: 0,inactive: 0,inactive: 0,inactive: 0,inactive: 0,inactive: 0,inactive: 0,inactive: 0,inactive: 0,inactive: 0,inactive: 0,inactive: 0,inactive: 0,inactive: 0,inactive: 0,inactive: 0,inactive: 0,inactive: 0,inactive: 0,inactive: 0
C=CC(=O)Nc1cc(-n2c(=O)ccc3cnc4ccc(-c5ccc(NS(C)(=O)=O)cc5)cc4c32)ccc1C (10 µM),inactive: 0,inactive: 0,inactive: 0,inactive: 0,inactive: 0,inactive: 0,inactive: 0,inactive: 0,inactive: 0,inactive: 0,inactive: 0,inactive: 0,inactive: 0,inactive: 0,inactive: 0,inactive: 0,inactive: 0,inactive: 0,inactive: 0,inactive: 0
CN(c1ccc(NC(=O)Nc2ccc(OC(F)(F)F)cc2)cc1)c1ccnc(Nc2cccc(S(N)(=O)=O)c2)n1 (2.5 µM),inactive: 0,inactive: 0,inactive: 0,inactive: 0,inactive: 0,inactive: 0,inactive: 0,inactive: 0,inactive: 0,inactive: 0,inactive: 0,inactive: 0,inactive: 0,inactive: 0,inactive: 0,inactive: 0,inactive: 0,inactive: 0,inactive: 0,active: 1
c1cc(NC2CCNCC2)nc(-c2cnc3ccccn23)c1 [IRAK inhibitor 1] (10 µM),inactive: 0,inactive: 0,inactive: 0,inactive: 0,inactive: 0,inactive: 0,inactive: 0,inactive: 0,inactive: 0,inactive: 0,inactive: 0,inactive: 0,inactive: 0,inactive: 0,inactive: 0,inactive: 0,inactive: 0,inactive: 0,inactive: 0,inactive: 0
O=C(NC1CCOCC1)c1ccc(-c2cc(-c3c[nH]nc3-c3ccccn3)ccn2)cc1 (10 µM),inactive: 0,inactive: 0,inactive: 0,inactive: 0,inactive: 0,inactive: 0,inactive: 0,inactive: 0,inactive: 0,inactive: 0,inactive: 0,inactive: 0,inactive: 0,inactive: 0,inactive: 0,inactive: 0,inactive: 0,inactive: 0,inactive: 0,inactive: 0
COc1ccc2cc3[n+](cc2c1OC)CCc1cc(O)c(O)cc1-3 [Demethyleneberberine] (10 µM),inactive: 0,inactive: 0,inactive: 0,inactive: 0,inactive: 0,inactive: 0,inactive: 0,inactive: 0,inactive: 0,inactive: 0,inactive: 0,inactive: 0,inactive: 0,inactive: 0,inactive: 0,inactive: 0,inactive: 0,inactive: 0,inactive: 0,inactive: 0

# For reference, some entries already given.
Compound,kinase-Nluc reporter destabilization hit call (BRAF_V600E),kinase-Nluc reporter destabilization hit call (BTK),kinase-Nluc reporter destabilization hit call (CAMK2A),kinase-Nluc reporter destabilization hit call (CAMK2G),kinase-Nluc reporter destabilization hit call (CDK10),kinase-Nluc reporter destabilization hit call (CDK2),kinase-Nluc reporter destabilization hit call (CDK3),kinase-Nluc reporter destabilization hit call (CDK4),kinase-Nluc reporter destabilization hit call (CDK5),kinase-Nluc reporter destabilization hit call (CDK6),kinase-Nluc reporter destabilization hit call (CDK7),kinase-Nluc reporter destabilization hit call (CDK9),kinase-Nluc reporter destabilization hit call (CHEK2),kinase-Nluc reporter destabilization hit call (CSF1R),kinase-Nluc reporter destabilization hit call (CSK),kinase-Nluc reporter destabilization hit call (CSNK1A1),kinase-Nluc reporter destabilization hit call (CSNK1D),kinase-Nluc reporter destabilization hit call (DDR1),kinase-Nluc reporter destabilization hit call (DYRK1B),kinase-Nluc reporter destabilization hit call (DYRK2)
C=CC(=O)Nc1cc(-n2c(=O)ccc3cnc4ccc(-c5ccc(NS(C)(=O)=O)cc5)cc4c32)ccc1C (10 µM),inactive: 0,inactive: 0,inactive: 0,inactive: 0,inactive: 0,inactive: 0,inactive: 0,inactive: 0,inactive: 0,inactive: 0,inactive: 0,inactive: 0,inactive: 0,inactive: 0,inactive: 0,inactive: 0,inactive: 0,inactive: 0,inactive: 0,inactive: 0
CN(c1ccc(NC(=O)Nc2ccc(OC(F)(F)F)cc2)cc1)c1ccnc(Nc2cccc(S(N)(=O)=O)c2)n1 (2.5 µM),inactive: 0,inactive: 0,inactive: 0,inactive: 0,inactive: 0,inactive: 0,inactive: 0,inactive: 0,inactive: 0,inactive: 0,inactive: 0,inactive: 0,inactive: 0,inactive: 0,inactive: 0,inactive: 0,inactive: 0,inactive: 0,inactive: 0,active: 1
